The target of assay [1] is cyclin-dependent kinase inhibitor p21 (human (endogenous in NARF2)) (UniProt P38936). In words: co-IP; NARF2 whole-cell lysates, cells with or without IPTG (p14ARF induction) for 24 hr; immunoprecipitated with anti-FMN2 or anti-p21 antibodies (normal rabbit IgG as control), precipitates analysed by western blot. (In general: Immunoblotting shows a protein as a band on a membrane.)

Amino acid sequences for entries named in this document (tags omitted).
UniProt P38936: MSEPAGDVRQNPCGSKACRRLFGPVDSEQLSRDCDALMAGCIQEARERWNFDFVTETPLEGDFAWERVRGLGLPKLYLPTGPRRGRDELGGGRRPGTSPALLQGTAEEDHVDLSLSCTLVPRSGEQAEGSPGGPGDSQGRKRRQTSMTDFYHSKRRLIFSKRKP
UniProt Q9NZ56: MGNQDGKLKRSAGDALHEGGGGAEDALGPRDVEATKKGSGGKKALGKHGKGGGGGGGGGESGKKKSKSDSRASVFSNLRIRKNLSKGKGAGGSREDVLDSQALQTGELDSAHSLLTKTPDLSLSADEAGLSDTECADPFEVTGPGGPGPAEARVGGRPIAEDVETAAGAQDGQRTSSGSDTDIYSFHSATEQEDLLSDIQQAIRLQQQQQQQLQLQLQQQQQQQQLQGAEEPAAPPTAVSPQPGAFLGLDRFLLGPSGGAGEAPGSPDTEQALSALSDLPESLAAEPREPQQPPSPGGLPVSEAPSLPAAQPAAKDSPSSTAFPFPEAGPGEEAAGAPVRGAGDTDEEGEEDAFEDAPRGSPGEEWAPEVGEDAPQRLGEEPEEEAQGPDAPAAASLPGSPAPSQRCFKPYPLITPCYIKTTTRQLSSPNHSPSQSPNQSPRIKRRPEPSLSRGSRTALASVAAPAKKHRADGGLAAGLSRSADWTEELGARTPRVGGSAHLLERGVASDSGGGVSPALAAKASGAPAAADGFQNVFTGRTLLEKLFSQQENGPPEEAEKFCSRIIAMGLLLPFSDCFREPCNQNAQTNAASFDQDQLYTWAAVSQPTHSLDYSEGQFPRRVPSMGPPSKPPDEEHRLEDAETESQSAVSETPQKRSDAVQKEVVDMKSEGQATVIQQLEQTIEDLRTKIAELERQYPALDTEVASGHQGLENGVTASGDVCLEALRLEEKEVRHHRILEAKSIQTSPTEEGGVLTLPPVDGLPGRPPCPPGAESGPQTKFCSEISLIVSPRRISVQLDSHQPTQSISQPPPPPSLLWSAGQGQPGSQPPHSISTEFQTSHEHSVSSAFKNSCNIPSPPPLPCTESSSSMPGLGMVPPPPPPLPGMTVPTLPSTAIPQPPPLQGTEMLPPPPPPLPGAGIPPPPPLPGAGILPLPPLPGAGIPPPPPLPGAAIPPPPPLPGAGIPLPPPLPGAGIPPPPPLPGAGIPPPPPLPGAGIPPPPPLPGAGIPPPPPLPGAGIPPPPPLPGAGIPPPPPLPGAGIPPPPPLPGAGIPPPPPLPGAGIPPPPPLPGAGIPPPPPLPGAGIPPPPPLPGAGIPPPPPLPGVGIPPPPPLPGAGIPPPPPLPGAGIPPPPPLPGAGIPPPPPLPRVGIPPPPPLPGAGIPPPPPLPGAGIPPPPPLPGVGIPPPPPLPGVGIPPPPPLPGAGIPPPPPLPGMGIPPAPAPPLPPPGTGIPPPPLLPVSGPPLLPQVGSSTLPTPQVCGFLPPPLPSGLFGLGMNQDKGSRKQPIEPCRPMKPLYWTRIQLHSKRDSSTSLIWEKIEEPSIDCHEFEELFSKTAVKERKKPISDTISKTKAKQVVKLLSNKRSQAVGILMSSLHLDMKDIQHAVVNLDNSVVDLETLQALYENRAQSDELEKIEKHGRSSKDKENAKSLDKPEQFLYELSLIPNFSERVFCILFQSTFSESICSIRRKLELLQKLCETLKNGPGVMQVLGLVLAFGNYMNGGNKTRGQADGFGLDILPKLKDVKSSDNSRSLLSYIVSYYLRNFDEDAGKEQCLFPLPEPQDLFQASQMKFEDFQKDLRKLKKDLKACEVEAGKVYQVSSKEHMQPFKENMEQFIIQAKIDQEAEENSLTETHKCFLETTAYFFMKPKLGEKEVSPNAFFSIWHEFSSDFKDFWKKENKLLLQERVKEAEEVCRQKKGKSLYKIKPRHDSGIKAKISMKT

Assay [2] concerns the target Formin-2 (FMN2) (human (endogenous in NARF2)) (UniProt Q9NZ56). Described as above.

Data on 2 substances can be found in paper PMC3594747.

No constants are given. Whether binding was seen depends on the method and setting. Binding seen in cells or lysates may run through a third protein. Some binding calls cover weakened binding; strength is not graded here.

Regarding “Formin-2 (FMN2) (from UniProt Q9NZ56 1-1722)”, in assay [1], the binding result is recorded as “binds”.
For the substance “cyclin-dependent kinase inhibitor p21 (from UniProt P38936 1-164)”, the binding result in assay [2] is reported as “binds”.
